The nature of this series: peptide made by a vendor (Fmoc solid-phase peptide synthesis; Fmoc-AM-MBHA resin; DIC/HOBt). To be noted: whole synthesis, analytical RP-HPLC, several disulfide bridges, sequence written open.

End groups of sequences in plain letters are not given here.

As for “CLETSGSCIPGAQHNCCSGVCVPLVTLFYGVCY (Achyranthes bidentata Blume)”, the “final HPLC purity” value is given as “greater than 95%”.

For the origin of these results see US20230151065A1 (priority 2018, published 2023).
